## Results of single-concentration screens

Results are given as percent effect. The controls that fix the scale are not given in the record; negative values are as filed. Compounds were drawn at random from those tested, without regard to their results.

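Whole-parasite assay of Trypanosoma brucei over 72 hours; the read-out is not stated. Tested at 30 µM. Higher reads as stronger inhibition (inferred: compounds with an IC50 in retests scored well above the rest). Values scatter widely below zero; nearly all retest evidence comes from the higher of the two concentrations used. Size under these conditions: about 64,000 compounds, about 940 of them at 50% or above in at least one test.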

| compound | effect |
|---|---|
| `Cc1noc(-c2cccnc2N(C)Cc2ccc([S+](C)[O-])cc2)n1` (centres undefined) | 5.494% |
| `Cc1nc(CN2CCc3nc(N4CCCC4)nc(NC(C)C)c3C2)cs1` | 98.38% |
| `C(=C\c1ccccc1)/CNCC1CCc2nncn2C1` (centres undefined) | -8.745% |
| `CC(C)c1ncc(CN2C[C@@H](CN3CCC(CO)CC3)[C@@H](CO)C2)cn1` | 36.73% |
| `Cc1ccc(CN2CCC3(CC2)CN(c2ccccc2)C(=O)CO3)o1.O=C(O)C(F)(F)F` | -43.19% |
| `Cc1ccc(S(=O)(=O)NCC2(O)CCOc3ccccc32)s1` (centres undefined) | 5.815% |
| `COC(=O)NCC(=O)N1CCCC1c1nc(-c2ccccc2F)c[nH]1` (centres undefined) | -3.146% |
| `CN(CC1CCOC1)S(=O)(=O)c1cccc(C(=O)N2CCOCC2)c1` (centres undefined) | -23.09% |
| `Cc1ccc(CNC(=O)c2c[nH]nc2NC(=O)C2CCC2)cc1` | -19.35% |
| `COc1ccccc1S(=O)(=O)N1CCC2(CC1)[C@H](O)C[C@@H]2O` | -33.55% |
| `CCCc1cc(NCCCC2CCOC2)n2nccc2n1` (centres undefined) | 14.64% |
| `NC(=O)CC1CCCN(c2cncc(OCc3ccccc3)n2)C1` (centres undefined) | -30.94% |
| `CCOC(=O)CC(c1ccc(OC)c(OC)c1)c1c(O)n[nH]c1C` (centres undefined) | 1.537% |
| `[H][C@@]12C[C@@H](C(=O)NC(C)C)C[C@@]1([H])N(Cc1ccncc1)CCO2` | -5.428% |
| `Cc1cc(C)n(CC2CCCN2CC(=O)N(C)Cc2ccco2)n1` (centres undefined) | -4.327% |
| `COc1ccc(C(=O)NC2CCN(c3ncccn3)CC2)cc1F` | -44.94% |
| `O=C(c1cc(CC2(NC3CCCCC3)COC2)no1)N1CCCCC1` | -45.6% |
| `Cn1nccc1C1CCN(CC(O)c2cccc(F)c2)CC1` (centres undefined) | 5.557% |
| `COc1ccc2c(c1)C(C(=O)NCCN1CCOC1=O)CC(=O)N2` (centres undefined) | -5.979% |
| `CCOCC1CN(Cc2cnn(C)c2)Cc2nn(CC3CC3)cc21.O=C(O)C(F)(F)F` (centres undefined) | -4.36% |
| `CCc1noc(C)c1C(=O)N1CCCC1Cn1cc(C)cn1` (centres undefined) | -48.01% |
| `O=C(NC1CCCOc2cc(Cl)ccc21)c1ccc(=O)[nH]n1` (centres undefined) | -20.05% |
| `CCCc1noc(C(C)N2CC(n3cccn3)C2)n1` (centres undefined) | -74.45% |
| `COc1cc(C2SCC(=O)Nc3[nH]ncc32)cc2c1OCO2` (centres undefined) | 86.32% |
| `COCCc1noc(-c2ccc(-c3ccc(N)nc3)nc2)n1` | -13.02% |
| `[H][C@@]12CCN(c3ccc(C)nn3)C[C@]1(C(=O)N1CCCO1)CCO2` | 9.791% |
| `Cc1cccc(C(=O)NC(C)CN2CCCC2=O)n1` (centres undefined) | -17.42% |
| `COc1ccc(CCN)cc1-c1ccc(O)cc1` | -44.7% |
| `N#Cc1cnc(NCc2ccc(C(=O)NC3CC3)cc2)c(Cl)c1` | -28.98% |
| `CCn1ncnc1C1CC(=O)NCc2nc3ccccn3c21` (centres undefined) | 5.068% |
| `Cc1nc(CN2CCCn3cnc(COCC4CC4)c3C2)cs1.O=C(O)C(F)(F)F` | 7.769% |
| `CC(NCc1ccc(C(N)=O)cc1)c1ccc(Cl)c(Cl)c1.Cl` (centres undefined) | -2.252% |
| `CC(C(=O)NCc1cccs1)N1CCN(Cc2nccn2C)CC1` (centres undefined) | -53.22% |
| `Cc1cnn(CC2CCCN2Cc2nnc(C(C)C)o2)c1` (centres undefined) | -6.576% |
| `CCn1cncc1CNC(=O)c1ccc(C2CCCN2C(=O)COC)s1` (centres undefined) | -12.42% |
| `CC1CN(C(=O)CCc2cc(Br)cs2)CCO1` (centres undefined) | 5.54% |
| `CN(C)C(=O)c1ccc2c(c1)N(C)C(CC(=O)NCc1ccno1)CO2` (centres undefined) | -15.26% |
| `O=C(C1CCCC1)N1CCCC(c2cccc(-n3ccnc3)n2)C1` (centres undefined) | 10.35% |
| `COC(=O)CC(c1cccnc1)c1oc(C)cc(=O)c1O` (centres undefined) | -20.92% |
| `CCCN1CCC(Nc2cc(-c3ccccc3)ccc2OC)CC1` | 57.37% |
| `[H][C@]12C[C@@H](C(=O)N(C)Cc3ccccn3)CO[C@@]1([H])CCN(CCOC)C2` | -97.75% |
| `Cc1nc(Nc2ccccn2)cc(N2CCN(S(C)(=O)=O)CC2)n1` | -26.43% |
| `Cc1nc2n(n1)CC(NCc1nnc(C(C)(C)C)o1)CC2` (centres undefined) | -2.608% |
| `Cn1cc(C2CCCN2C(=O)c2cnc(-c3ccco3)s2)cn1` (centres undefined) | -41.16% |
| `COc1c(F)cc(NC(=O)NCc2nncn2C2CC2)cc1F` | -17.58% |

From ChEMBL document CHEMBL3988442, “University of Dundee, Small-Polar-MMV Screening Library” (2021).